Test results as given in the supplement of paper PMC12819154, “High-throughput peptide-centric local stability assay extends protein–ligand identification to membrane proteins, tissues and bacteria” (Nature Structural & Molecular Biology, 2025).
The list shows a part of the results. Most entries show no effect beyond the scatter of the controls.

Sequences of proteins named here, by UniProt entry; tags and fusion partners are left off. A change or cut given only in a name is not applied to a line headed by its entry.
UniProt Q9HCM7, whole entry: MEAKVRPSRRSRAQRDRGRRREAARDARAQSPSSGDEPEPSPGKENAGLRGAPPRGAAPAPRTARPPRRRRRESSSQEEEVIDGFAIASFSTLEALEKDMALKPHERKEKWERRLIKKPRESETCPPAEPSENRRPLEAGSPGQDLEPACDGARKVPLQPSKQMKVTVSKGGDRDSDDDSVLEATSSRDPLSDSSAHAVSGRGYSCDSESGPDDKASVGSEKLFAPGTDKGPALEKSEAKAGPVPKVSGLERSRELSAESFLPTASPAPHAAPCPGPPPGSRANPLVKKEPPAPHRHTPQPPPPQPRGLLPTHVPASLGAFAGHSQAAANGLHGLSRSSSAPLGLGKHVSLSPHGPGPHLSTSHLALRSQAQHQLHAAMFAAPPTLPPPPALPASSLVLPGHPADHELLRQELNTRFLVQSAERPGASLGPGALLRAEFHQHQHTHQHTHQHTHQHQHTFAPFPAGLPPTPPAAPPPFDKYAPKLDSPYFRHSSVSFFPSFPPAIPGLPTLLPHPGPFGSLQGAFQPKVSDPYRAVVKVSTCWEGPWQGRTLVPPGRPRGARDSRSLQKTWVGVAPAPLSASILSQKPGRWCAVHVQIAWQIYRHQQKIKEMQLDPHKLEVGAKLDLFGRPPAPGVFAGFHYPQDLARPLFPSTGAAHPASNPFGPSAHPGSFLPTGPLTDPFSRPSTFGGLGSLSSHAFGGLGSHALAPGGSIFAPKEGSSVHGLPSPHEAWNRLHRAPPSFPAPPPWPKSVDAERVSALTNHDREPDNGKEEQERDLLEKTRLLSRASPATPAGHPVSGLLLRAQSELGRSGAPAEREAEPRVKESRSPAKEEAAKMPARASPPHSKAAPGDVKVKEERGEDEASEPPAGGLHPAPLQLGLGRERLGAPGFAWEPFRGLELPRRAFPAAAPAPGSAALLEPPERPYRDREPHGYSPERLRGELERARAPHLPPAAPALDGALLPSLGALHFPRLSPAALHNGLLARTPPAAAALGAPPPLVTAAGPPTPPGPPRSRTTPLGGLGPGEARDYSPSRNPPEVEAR
UniProt Q9NRH1: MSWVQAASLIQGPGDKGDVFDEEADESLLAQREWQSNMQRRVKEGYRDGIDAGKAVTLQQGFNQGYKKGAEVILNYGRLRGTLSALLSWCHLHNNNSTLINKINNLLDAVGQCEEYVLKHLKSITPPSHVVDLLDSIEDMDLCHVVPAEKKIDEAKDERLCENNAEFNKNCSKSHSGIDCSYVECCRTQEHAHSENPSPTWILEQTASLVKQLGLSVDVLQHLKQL
UniProt Q9NR33: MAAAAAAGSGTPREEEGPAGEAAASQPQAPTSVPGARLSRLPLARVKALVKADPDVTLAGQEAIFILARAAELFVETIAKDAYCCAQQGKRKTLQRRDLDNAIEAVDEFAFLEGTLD
UniProt Q9NWD9: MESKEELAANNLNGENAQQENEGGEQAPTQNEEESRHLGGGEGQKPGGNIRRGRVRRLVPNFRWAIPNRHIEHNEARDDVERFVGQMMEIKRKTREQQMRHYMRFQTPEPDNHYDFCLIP
UniProt Q9NUG6, whole entry: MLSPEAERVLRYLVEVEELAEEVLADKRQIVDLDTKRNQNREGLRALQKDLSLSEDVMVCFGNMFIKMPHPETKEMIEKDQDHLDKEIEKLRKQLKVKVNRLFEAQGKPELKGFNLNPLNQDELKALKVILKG
UniProt Q9NVX0: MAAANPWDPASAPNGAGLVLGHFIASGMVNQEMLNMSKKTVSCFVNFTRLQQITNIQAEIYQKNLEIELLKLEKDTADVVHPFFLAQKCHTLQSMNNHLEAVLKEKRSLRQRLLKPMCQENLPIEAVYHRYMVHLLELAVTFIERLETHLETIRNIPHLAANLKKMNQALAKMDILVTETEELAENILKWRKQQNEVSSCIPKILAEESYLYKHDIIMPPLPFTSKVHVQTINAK
UniProt Q9NQY0: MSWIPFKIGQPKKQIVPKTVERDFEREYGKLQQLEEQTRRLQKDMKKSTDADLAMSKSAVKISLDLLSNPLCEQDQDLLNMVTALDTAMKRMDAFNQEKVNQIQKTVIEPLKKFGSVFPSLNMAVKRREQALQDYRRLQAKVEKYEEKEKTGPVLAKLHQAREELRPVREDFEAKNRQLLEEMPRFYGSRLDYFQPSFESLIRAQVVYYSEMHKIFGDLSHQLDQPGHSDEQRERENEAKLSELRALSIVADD
UniProt Q9HCU8: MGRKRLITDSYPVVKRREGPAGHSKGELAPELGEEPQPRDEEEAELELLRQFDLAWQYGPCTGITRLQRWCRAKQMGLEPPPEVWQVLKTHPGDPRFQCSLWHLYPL
UniProt Q9NWU2, whole entry: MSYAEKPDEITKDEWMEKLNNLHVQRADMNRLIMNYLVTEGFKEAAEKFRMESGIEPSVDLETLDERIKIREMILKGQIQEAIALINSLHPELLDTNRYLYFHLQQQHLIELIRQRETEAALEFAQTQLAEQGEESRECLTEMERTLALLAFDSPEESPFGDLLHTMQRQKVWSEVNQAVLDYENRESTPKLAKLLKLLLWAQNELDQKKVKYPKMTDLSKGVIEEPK
UniProt Q9NRL2: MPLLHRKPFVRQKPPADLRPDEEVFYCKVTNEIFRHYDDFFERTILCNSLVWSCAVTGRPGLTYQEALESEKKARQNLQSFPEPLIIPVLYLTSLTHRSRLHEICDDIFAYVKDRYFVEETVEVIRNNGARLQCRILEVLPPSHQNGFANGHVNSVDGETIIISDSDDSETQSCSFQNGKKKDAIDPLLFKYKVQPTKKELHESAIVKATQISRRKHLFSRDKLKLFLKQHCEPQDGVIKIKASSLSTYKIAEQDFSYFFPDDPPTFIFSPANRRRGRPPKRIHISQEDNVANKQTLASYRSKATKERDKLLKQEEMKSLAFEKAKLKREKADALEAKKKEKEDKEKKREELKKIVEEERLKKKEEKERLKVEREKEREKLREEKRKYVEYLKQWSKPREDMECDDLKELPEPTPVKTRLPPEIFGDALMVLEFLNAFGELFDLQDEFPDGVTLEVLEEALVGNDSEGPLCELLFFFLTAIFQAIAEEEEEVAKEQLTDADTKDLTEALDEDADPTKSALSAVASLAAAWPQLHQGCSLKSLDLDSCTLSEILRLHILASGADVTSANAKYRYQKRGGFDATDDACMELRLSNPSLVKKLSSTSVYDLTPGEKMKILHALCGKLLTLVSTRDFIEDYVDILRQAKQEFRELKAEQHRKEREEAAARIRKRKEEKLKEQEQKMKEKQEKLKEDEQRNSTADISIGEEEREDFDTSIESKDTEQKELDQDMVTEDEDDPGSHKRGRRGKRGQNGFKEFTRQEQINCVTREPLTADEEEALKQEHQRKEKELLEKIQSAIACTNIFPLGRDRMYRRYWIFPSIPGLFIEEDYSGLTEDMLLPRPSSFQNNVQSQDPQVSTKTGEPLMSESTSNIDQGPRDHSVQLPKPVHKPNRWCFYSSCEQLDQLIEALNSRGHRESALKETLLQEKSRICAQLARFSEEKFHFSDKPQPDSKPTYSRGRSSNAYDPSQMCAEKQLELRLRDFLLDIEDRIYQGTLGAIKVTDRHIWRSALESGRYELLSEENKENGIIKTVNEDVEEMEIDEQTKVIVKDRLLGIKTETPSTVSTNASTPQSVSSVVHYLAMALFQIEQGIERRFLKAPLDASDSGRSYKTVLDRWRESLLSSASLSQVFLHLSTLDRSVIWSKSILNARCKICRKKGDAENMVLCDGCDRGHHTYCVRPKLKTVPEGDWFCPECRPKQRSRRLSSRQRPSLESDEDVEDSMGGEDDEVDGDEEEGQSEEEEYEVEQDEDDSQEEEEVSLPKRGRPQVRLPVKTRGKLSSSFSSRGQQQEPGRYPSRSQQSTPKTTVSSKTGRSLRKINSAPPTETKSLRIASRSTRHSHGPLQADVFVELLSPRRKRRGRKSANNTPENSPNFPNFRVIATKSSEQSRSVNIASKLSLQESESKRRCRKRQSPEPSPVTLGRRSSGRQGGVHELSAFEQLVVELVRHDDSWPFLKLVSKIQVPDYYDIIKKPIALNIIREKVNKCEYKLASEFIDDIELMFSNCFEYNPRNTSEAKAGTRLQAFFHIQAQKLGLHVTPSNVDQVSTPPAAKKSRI

Compound: Cc1nc(Nc2ncc(C(=O)Nc3c(C)cccc3Cl)s2)cc(N2CCN(CCO)CC2)n1 [dasatinib]
Test: log2 fold change of tryptic peptide abundance, ligand vs vehicle (limited proteolysis) (log2 ratio); higher = more trypsin-susceptible (destabilized)
Details: ligand concentration: 5 uM; sample: K562 cleared lysate

Question: “UniProt Q9HCM7 (peptide sequence: TTPLGGLGPGEAR, peptide start residue: 1019)” was tested. Which log2 fold change did it give?
Answer: -0.217

Question: “UniProt Q9NRH1 (peptide sequence: GAEVILNYGR, peptide start residue: 69)” was tested. Which log2 fold change did it give?
Answer: 0.245

Question: How did the log2 fold change turn out when “POLE4 (peptide sequence: AAELFVETIAK, peptide start residue: 70) (UniProt Q9NR33)” was run?
Answer: 0.0279

Question: For “BEX4 (peptide sequence: FVGQMMEIK, peptide start residue: 83) (UniProt Q9NWD9)”, which log2 fold change is on record?
Answer: -0.157

Question: “MDN1 (peptide sequence: DLLNWCNR, peptide start residue: 549) (UniProt Q9NU22)” was tested. Which log2 fold change did it give?
Answer: 0.443

Question: How did the log2 fold change turn out when “PDRG1 (peptide sequence: LFEAQGKPELK, peptide start residue: 102) (UniProt Q9NUG6)” was run?
Answer: -0.417

Question: “UniProt Q9NVX0 (peptide sequence: TVSCFVNFTR, peptide start residue: 40)” was tested. Which log2 fold change did it give?
Answer: 0.259

Question: “BIN3 (peptide sequence: MDAFNQEKVNQIQK, peptide start residue: 92) (UniProt Q9NQY0)” was tested. Which log2 fold change did it give?
Answer: -0.996

Question: How did the log2 fold change turn out when “POLD4 (peptide sequence: LITDSYPVVK, peptide start residue: 6) (UniProt Q9HCU8)” was run?
Answer: -0.0203

Question: With “UniProt Q9NWU2 (peptide sequence: ECLTEMER, peptide start residue: 138)” as the target, how does the log2 fold change read?
Answer: 0.222

Question: For “BAZ1A (peptide sequence: EKADALEAK, peptide start residue: 330) (UniProt Q9NRL2)”, which log2 fold change is on record?
Answer: 0.297
